Taken from: PubChem BioAssay AID1259291 (Sanger Institute, 2017)
Test: 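Find kinase and colorectal-cancer-mutated genes whose loss kills HT29 cells or aids anchor drugs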 (primary screen). System: HT29 human colorectal cancer cells. Reagent: siRNA pool against human genes. Conditions: anchor drugs added a day after transfection: BYL719 at 1 µM, cetuximab at 5 µg/ml or trametinib at 10 nM, or DMSO vehicle alone. Read-out: 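Replicate-averaged viability relative to non-targeting pool, robust z-score based on control wells, plus per-drug synergy score for 1 µM BYL719, 5 µg/ml cetuximab and 10 nM trametinib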. Reading the numbers: robust z-score, knock-down alone and viability, knock-down alone: higher = more viable cells. Rule for the call: 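a knock-down alone scoring under -3 on robust z-score is called essential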. Calls: active = essential (knock-down alone); inactive = no change alone.
In all, the deposit lists 794 reagents; shown is a part drawn at random. Of all reagents, 15 (1.9%) got an active call. 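Calls rest on knock-down alone; drug synergy scores do not affect them; drugs added a day post-transfection, DMSO vehicle as comparison.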 The numbers tell different reagents against one gene apart. No viability above 1 is reported: the scale is capped. Further read-outs or replicates are left out here. No sequences are given here. Not given: the amount of reagent, the time to read-out.

no.	Target gene	reagent no.	robust z-score, knock-down alone	viability, knock-down alone (fraction of control)	activity call
1	CSNK1A1 (casein kinase 1 alpha 1)	1	0.552	1	inactive
2	ERBB2 (erb-b2 receptor tyrosine kinase 2)	1	-0.118	0.958	inactive
3	FRK (fyn related Src family tyrosine kinase)	1	0.552	1	inactive
4	MAP3K5 (mitogen-activated protein kinase kinase kinase 5)	1	0.552	1	inactive
5	DAPK1 (death associated protein kinase 1)	1	0.552	1	inactive
6	CASK (calcium/calmodulin dependent serine protein kinase)	1	-0.0651	0.962	inactive
7	KRAS (KRas proto-oncogene, GTPase)	1	-1.13	0.896	inactive
8	FGFR4 (fibroblast growth factor receptor 4)	1	0.552	1	inactive
9	AAK1 (AP2 associated kinase 1)	1	-0.949	0.907	inactive
10	KMT2B (lysine methyltransferase 2B)	1	-1.57	0.868	inactive
11	MKNK1 (MAPK interacting serine/threonine kinase 1)	1	0.301	0.984	inactive
12	BUB1B (BUB1 mitotic checkpoint serine/threonine kinase B)	1	-2.45	0.814	inactive
13	PRKCH (protein kinase C eta)	1	0.552	1	inactive
14	FYN (FYN proto-oncogene, Src family tyrosine kinase)	1	0.552	1	inactive
15	ILK (integrin linked kinase)	1	0.552	1	inactive
16	ILK (integrin linked kinase)	2	-0.625	0.927	inactive
17	CMPK1 (cytidine/uridine monophosphate kinase 1)	1	0.552	1	inactive
18	IPPK (inositol-pentakisphosphate 2-kinase)	1	-1.46	0.875	inactive
19	TTK (TTK protein kinase)	1	0.552	1	inactive
20	CAMK2G (calcium/calmodulin dependent protein kinase II gamma)	1	-1.82	0.853	inactive

2 entries from above, reformatted:
Target gene,reagent no.,"robust z-score, knock-down alone","viability, knock-down alone (fraction of control)",activity call
FGFR4 (fibroblast growth factor receptor 4),1,0.552,1,inactive
AAK1 (AP2 associated kinase 1),1,-0.949,0.907,inactive
